{"sequences": {"note": "Sequences of proteins named here, by UniProt entry; tags and fusion partners are left off.", "UniProt P40958": "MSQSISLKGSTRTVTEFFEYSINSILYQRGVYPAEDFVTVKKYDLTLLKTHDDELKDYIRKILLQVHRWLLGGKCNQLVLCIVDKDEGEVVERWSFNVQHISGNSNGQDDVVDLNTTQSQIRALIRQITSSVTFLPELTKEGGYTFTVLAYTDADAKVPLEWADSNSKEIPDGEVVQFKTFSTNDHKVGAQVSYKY"}, "source": "paper PMC7846277", "molecules": {"B1": {"name": "Zip1^SYCP1 (protein, UniProt P31111 1-875)", "chain": "MSNFFRDSSMGFKPRPNIFAKLRVRDVDSDSSANTVVENSSNCLDVGSSIEGDDTFKKPHKTSTEQELITSMSLSQRNHGYSDDMEIGSPKKTTSTDQYNRILKNDVAAIENDTDEDFEITEVREVSEGVAKETKESHGDPNDSETTLKDSKMHEYTMTNGKAPLHTSINNSSTSSNDVLLEAFTNTQRICSNLKQELQKQQQDNAKLKVRLQSYASNSDKINEKVGKYKSCLETLQERIATLTSHKNNQETKLKDLRQNHQLYQRRISGFKTSIENLNKTINDLGKNKKEADAELMKKGKEIEYLKRELDDCSGQLSEEKIKNSSLIQEMGKNREEMIKSIENFFSEDKAHHLLQFNKFEERVHDLFEKKLQKHFDVAKDTLNVGLRNTTVELSSNTETMLKQQYEDIKENLEQKMSSSKDEMAKTINELSVTQKGLIMGVQEELLTSSGNIQTALVSEMNNTRQELLDDASQTAKNYASLENLVKAYKAEIVQSNEYEERIKHLESERSTLSSQKNQIISSLGTKEAQYEDLVKKLEAKNIEISQISGKEQSLTEKNENLSNELKKVQDQLEKLNNLNITTKSNYENKISSQNEIVKALVSENDTLKQRIQQLVEIKENEQKDHTTKLEAFQKNNEQLQKLNVEVVQLKAHELELEEQNRHLKNCLEKKETGVEESLSDVKTLKQQVIVLKSEKQDITAEKLELQDNLESLEEVTKNLQQKVQSQKRELEQKIKELEEIKNHKRNEPSKKGTQNFTKPSDSPKKNATTSNLFPNNSAAIHSPMKKCPKVDHISKSRINSSKETSKFNDEFDLSSSSNDDLELTNPSPIQIKPVRGKIKKGSNCMKPPISSRKKLLLVEDEDQSLKISKKRRRK"}, "B2": {"name": "Mad1^MAD1 (protein, UniProt P40957 1-749)", "chain": "MDVRAALQCFFSALSGRFTGKKLGLEIYSIQYKMSNSGGSSPFLESPGGSPDVGSTNGQSNRQIQALQFKLNTLQNEYEIEKLQLQKQTNILEKKYKATIDELEKALNDTKYLYESNDKLEQELKSLKERSANSMNDKDKCIEELRTTLQNKDLEMETLRQQYDSKLSKVTNQCDHFKLEAESSHSLLMKYEKEIKRQSVDIKDLQHQVMEKDDELSSVKASKMINSHPNYSTEEFNELTEMNKMIQDQVQYTKELELANMQQANELKKLKQSQDTSTFWKLENEKLQNKLSQLHVLESQYENLQLENIDLKSKLTKWEIYNDSDDDDDNNVNNNDNNNNNKNDNNNDNNNDTSNNNNINNNNRTKNNIRNNPEEIIRDWKLTKKECLILTDMNDKLRLDNNNLKLLNDEMALERNQILDLNKNYENNIVNLKRLNHELEQQKSLSFEECRLLREQLDGLYSAQNNALLEVENSETHASNKNVNEDMNNLIDTYKNKTEDLTNELKKLNDQLLSNSNDVETQRKKRKLTSDQIGLNYSQRLNELQLENVSVSRELSKAQTTIQLLQEKLEKLTKLKEKKIRILQLRDGPFIKDQFIKKNKLLLLEKENADLLNELKKNNPAVETVPISVYDSLNFELKQFEQEVFKSNKRFSRLKQVFNNKSLEFIDVVNSLLGFKLEFQQDSRVKIFSCFKPEKYLIADLNENTLKSNLDADIEGWDDLMNLWVEDRGQLPCFLATITLRLWEQRQAK"}, "B3": {"name": "Kre28^Zwint (protein, UniProt Q04431 1-385)", "chain": "MDTGSASIKDYETVLTDIEDSIAVSSEEVLNNQELRLKNTLHEITSSILAINEENKFVNPLRNDESLDVEGKEVFVNPKILSAKIKEFNKLMELLKLTYLEQETLDYFFRFTLSSTKPLQLDSEKDPQFVKLNERVNDLKEEISNVQESKIEQIKAEIQETGHNFAERQDLINELYLEATGDIENCWDSLNELKNLTNKEDKNMMGEKDTILNSSDSDDFVEETYTNWQKLLFLQKQNQRLTKELKEMHEVKNQIIRKGEQSKKEDSGHLMANESELCQSINLLTKFWEKHFLLKGSKTTILNFEIFTQLGKVQFEIKDMQYIIAISLSDLKRPMIKDITILQKAGGNIVTDIEASSKFNNKYRNNTKVQIFEVMDDIISELTNE"}, "B4": {"name": "Bub1^BUB1 (protein, UniProt P41695 1-1021)", "chain": "MNLDLGSTVRGYESDKDTFPQSKGVSSSQKEQHSQLNQTKIAYEQRLLNDLEDMDDPLDLFLDYMIWISTSYIEVDSESGQEVLRSTMERCLIYIQDMETYRNDPRFLKIWIWYINLFLSNNFHESENTFKYMFNKGIGTKLSLFYEEFSKLLENAQFFLEAKVLLELGAENNCRPYNRLLRSLSNYEDRLREMNIVENQNSVPDSRERLKGRLIYRTAPFFIRKFLTSSLMTDDKENRANLNSNVGVGKSAPNVYQDSIVVADFKSETERLNLNSSKQPSNQRLKNGNKKTSIYADQKQSNNPVYKLINTPGRKPERIVFNFNLIYPENDEEFNTEEILAMIKGLYKVQRRGKKHTEDYTSDKNRKKRKLDVLVERRQDLPSSQPPVVPKSTRIEVFKDDDNPSQSTHHKNTQVQVQTTTSILPLKPVVDGNLAHETPVKPSLTSNASRSPTVTAFSKDAINEVFSMFNQHYSTPGALLDGDDTTTSKFNVFENFTQEFTAKNIEDLTEVKDPKQETVSQQTTSTNETNDRYERLSNSSTRPEKADYMTPIKETTETDVVPIIQTPKEQIRTEDKKSGDNTETQTQLTSTTIQSSPFLTQPEPQAEKLLQTAEHSEKSKEHYPTIIPPFTKIKNQPPVIIENPLSNNLRAKFLSEISPPLFQYNTFYNYNQELKMSSLLKKIHRVSRNENKNPIVDFKKTGDLYCIRGELGEGGYATVYLAESSQGHLRALKVEKPASVWEYYIMSQVEFRLRKSTILKSIINASALHLFLDESYLVLNYASQGTVLDLINLQREKAIDGNGIMDEYLCMFITVELMKVLEKIHEVGIIHGDLKPDNCMIRLEKPGEPLGAHYMRNGEDGWENKGIYLIDFGRSFDMTLLPPGTKFKSNWKADQQDCWEMRAGKPWSYEADYYGLAGVIHSMLFGKFIETIQLQNGRCKLKNPFKRYWKKEIWGVIFDLLLNSGQASNQALPMTEKIVEIRNLIESHLEQHAENHLRNVILSIEEELSHFQYKGKPSRRF"}, "B5": {"name": "Bub3^BUB3 (protein, UniProt P26449 1-341)", "chain": "MQIVQIEQAPKDYISDIKIIPSKSLLLITSWDGSLTVYKFDIQAKNVDLLQSLRYKHPLLCCNFIDNTDLQIYVGTVQGEILKVDLIGSPSFQALTNNEANLGICRICKYGDDKLIAASWDGLIEVIDPRNYGDGVIAVKNLNSNNTKVKNKIFTMDTNSSRLIVGMNNSQVQWFRLPLCEDDNGTIEESGLKYQIRDVALLPKEQEGYACSSIDGRVAVEFFDDQGDDYNSSKRFAFRCHRLNLKDTNLAYPVNSIEFSPRHKFLYTAGSDGIISCWNLQTRKKIKNFAKFNEDSVVKIACSDNILCLATSDDTFKTNAAIDQTIELNASSIYIIFDYEN"}, "B6": {"name": "Cdc5^Plk1 (enzyme, UniProt P32562 1-705)", "chain": "MSLGPLKAINDKQLNTRSKLVHTPIKGNTADLVGKENHFKQTKRLDPNNDHHHQPAQKKKREKLSALCKTPPSLIKTRGKDYHRGHFLGEGGFARCFQIKDDSGEIFAAKTVAKASIKSEKTRKKLLSEIQIHKSMSHPNIVQFIDCFEDDSNVYILLEICPNGSLMELLKRRKVLTEPEVRFFTTQICGAIKYMHSRRVIHRDLKLGNIFFDSNYNLKIGDFGLAAVLANESERKYTICGTPNYIAPEVLMGKHSGHSFEVDIWSLGVMLYALLIGKPPFQARDVNTIYERIKCRDFSFPRDKPISDEGKILIRDILSLDPIERPSLTEIMDYVWFRGTFPPSIPSTVMSEAPNFEDIPEEQSLVNFKDCMEKSLLLESMSSDKIQRQKRDYISSIKSSIDKLEEYHQNRPFLPHSLSPGGTKQKYKEVVDIEAQRRLNDLAREARIRRAQQAVLRKELIATSTNVIKSEISLRILASECHLTLNGIVEAEAQYKMGGLPKSRLPKIKHPMIVTKWVDYSNKHGFSYQLSTEDIGVLFNNGTTVLRLADAEEFWYISYDDREGWVASHYLLSEKPRELSRHLEVVDFFAKYMKANLSRVSTFGREEYHKDDVFLRRYTRYKPFVMFELSDGTFQFNFKDHHKMAISDGGKLVTYISPSHESTTYPLVEVLKYGEIPGYPESNFREKLTLIKEGLKQKSTIVTVD"}}, "note": "No constants are given. Whether binding was seen depends on the method and setting. In cells and extracts the contact can be indirect. A yes stands for co-enrichment or nearness to the bait. Other partners may have been found. For some assays here: No binding means not detected with the bait. Tags and fused reporters may be left off the sequences shown.", "data": [{"target": "T1, Dsn1–6His-3FLAG (S. cerevisiae (strain SK1)) (UniProt P40568)", "T1 sequence": "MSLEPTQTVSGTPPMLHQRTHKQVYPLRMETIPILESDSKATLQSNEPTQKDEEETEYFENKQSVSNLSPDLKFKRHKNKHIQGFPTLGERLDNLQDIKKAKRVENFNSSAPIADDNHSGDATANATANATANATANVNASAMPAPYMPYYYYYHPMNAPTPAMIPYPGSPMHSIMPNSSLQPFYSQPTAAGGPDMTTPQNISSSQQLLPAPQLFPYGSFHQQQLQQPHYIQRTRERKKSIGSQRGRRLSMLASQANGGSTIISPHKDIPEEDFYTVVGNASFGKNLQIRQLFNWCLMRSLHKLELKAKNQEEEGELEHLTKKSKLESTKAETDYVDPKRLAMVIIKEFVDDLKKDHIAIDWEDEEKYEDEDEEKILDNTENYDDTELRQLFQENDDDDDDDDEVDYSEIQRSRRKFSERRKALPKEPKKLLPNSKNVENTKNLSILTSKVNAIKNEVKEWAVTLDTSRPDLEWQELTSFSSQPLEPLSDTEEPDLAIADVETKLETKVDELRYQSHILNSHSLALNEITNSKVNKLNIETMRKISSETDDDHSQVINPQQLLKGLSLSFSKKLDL", "test": "affinity purification with mass spectrometry; as a1, cells arrested in meiotic metaphase I (pCLB2-CDC20), compared with prophase I cells", "values": [{"molecule": "B1", "binding": "no binding (only cells arrested in metaphase I)"}]}, {"target": "T1, Dsn1–6His-3FLAG (S. cerevisiae (strain SK1))", "test": "affinity purification with mass spectrometry; anti-FLAG (M2) immunoprecipitation of Dsn1–6His-3FLAG from lysates of cryoground yeast in H0.15 buffer (150 mM KCl, 0.1% NP-40, pH 8.0), 3 h at 4°C, elution with FLAG peptide, label-free quantitative MS; cells cycling, arrested in mitosis (benomyl), in meiotic prophase I (inducible-NDT80) or in metaphase I (pCLB2-CDC20)", "values": [{"molecule": "Mad2^MAD2 (from UniProt P40958 1-196)", "binding": "binds"}, {"molecule": "B2", "binding": "binds"}, {"molecule": "B3", "binding": "binds"}, {"molecule": "B4", "binding": "binds"}, {"molecule": "B5", "binding": "binds"}, {"molecule": "B6", "binding": "binds"}, {"molecule": "B1", "binding": "binds"}]}]}
